Drawing on paper PMC2669294, “The Spliceosomal Phosphopeptide P140 Controls the Lupus Disease by Interacting with the HSC70 Protein and via a Mechanism Mediated by γδ T Cells” (PLoS ONE, 2009), this text covers binding for 1 molecule.

In this assay the target is Hsp70 (inducible Hsp70/Hsp72). Put plainly: SPR; P140 and Hsp70; which of the two was immobilised is not told; both purified. (SPR reads the build-up and loss of mass on a sensor chip optically.)

Results are given in words; binding and its absence hold for the method and conditions named.

In the case of RIHMVYSKRSGKPRGYAFIEY (phosphoserine at Ser140 (position 10 of the peptide)) [P140 peptide (U1-70K snRNP protein residues 131-151, phosphorylated on Ser140)], the binding entry was “no binding”.
